According to PMC5660093, “Structure of SgK223 pseudokinase reveals novel mechanisms of homotypic and heterotypic association” (Nature Communications, 2017):
These are yes or no findings as the source states them, for the method shown. Binding seen in cells or lysates may run through a third protein. Tags and fused reporters may be left off the sequences shown.

Sequences of proteins named here, by UniProt entry; tags and fusion partners are left off.
UniProt Q9H792: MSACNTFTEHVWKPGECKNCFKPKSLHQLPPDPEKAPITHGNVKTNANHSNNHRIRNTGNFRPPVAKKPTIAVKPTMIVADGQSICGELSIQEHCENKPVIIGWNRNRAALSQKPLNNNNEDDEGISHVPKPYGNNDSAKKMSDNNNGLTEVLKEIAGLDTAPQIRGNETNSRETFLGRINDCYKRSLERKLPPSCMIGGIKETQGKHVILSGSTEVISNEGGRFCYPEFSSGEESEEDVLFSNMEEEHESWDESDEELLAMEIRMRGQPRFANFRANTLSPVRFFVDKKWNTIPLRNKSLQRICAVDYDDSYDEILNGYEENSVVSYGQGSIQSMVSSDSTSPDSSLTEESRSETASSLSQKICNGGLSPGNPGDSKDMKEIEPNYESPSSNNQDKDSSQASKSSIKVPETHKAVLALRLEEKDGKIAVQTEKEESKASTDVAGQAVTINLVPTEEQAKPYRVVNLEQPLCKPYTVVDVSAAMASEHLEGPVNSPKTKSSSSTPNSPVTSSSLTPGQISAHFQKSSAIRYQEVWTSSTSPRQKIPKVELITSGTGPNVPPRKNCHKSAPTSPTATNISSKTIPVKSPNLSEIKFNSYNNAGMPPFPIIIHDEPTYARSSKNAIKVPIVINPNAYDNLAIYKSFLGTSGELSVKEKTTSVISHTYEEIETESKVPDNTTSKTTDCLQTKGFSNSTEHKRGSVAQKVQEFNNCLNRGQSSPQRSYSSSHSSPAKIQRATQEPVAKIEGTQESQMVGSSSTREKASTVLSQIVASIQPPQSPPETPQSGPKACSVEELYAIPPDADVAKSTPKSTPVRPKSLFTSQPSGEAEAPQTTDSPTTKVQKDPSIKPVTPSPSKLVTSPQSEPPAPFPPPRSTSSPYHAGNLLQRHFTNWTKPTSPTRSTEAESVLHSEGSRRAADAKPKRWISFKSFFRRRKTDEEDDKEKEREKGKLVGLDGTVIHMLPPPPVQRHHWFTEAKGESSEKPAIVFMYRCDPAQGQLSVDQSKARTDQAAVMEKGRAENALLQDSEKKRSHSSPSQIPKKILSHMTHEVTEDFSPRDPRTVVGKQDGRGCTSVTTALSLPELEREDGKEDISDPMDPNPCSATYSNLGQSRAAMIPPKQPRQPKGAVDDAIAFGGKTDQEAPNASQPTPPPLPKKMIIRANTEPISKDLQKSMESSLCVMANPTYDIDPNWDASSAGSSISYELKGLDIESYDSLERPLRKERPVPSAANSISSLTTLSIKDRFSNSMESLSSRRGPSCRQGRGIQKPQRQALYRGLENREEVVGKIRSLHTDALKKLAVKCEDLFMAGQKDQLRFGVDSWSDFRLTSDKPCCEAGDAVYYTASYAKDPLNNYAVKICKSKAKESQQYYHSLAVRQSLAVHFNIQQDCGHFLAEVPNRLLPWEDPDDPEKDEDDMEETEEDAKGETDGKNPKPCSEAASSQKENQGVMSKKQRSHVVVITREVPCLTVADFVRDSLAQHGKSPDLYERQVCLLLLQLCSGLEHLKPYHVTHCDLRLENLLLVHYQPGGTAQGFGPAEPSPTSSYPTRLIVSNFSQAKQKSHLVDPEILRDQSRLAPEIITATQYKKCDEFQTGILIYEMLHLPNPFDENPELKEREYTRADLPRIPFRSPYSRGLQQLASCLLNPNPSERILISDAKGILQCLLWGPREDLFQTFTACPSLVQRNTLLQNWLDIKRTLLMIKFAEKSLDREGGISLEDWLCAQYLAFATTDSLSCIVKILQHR

Molecular target: T1, HA-tagged FL SgK223 W1382A (MCF-10A SgK223 KO) (UniProt Q86YV5)
T1 sequence: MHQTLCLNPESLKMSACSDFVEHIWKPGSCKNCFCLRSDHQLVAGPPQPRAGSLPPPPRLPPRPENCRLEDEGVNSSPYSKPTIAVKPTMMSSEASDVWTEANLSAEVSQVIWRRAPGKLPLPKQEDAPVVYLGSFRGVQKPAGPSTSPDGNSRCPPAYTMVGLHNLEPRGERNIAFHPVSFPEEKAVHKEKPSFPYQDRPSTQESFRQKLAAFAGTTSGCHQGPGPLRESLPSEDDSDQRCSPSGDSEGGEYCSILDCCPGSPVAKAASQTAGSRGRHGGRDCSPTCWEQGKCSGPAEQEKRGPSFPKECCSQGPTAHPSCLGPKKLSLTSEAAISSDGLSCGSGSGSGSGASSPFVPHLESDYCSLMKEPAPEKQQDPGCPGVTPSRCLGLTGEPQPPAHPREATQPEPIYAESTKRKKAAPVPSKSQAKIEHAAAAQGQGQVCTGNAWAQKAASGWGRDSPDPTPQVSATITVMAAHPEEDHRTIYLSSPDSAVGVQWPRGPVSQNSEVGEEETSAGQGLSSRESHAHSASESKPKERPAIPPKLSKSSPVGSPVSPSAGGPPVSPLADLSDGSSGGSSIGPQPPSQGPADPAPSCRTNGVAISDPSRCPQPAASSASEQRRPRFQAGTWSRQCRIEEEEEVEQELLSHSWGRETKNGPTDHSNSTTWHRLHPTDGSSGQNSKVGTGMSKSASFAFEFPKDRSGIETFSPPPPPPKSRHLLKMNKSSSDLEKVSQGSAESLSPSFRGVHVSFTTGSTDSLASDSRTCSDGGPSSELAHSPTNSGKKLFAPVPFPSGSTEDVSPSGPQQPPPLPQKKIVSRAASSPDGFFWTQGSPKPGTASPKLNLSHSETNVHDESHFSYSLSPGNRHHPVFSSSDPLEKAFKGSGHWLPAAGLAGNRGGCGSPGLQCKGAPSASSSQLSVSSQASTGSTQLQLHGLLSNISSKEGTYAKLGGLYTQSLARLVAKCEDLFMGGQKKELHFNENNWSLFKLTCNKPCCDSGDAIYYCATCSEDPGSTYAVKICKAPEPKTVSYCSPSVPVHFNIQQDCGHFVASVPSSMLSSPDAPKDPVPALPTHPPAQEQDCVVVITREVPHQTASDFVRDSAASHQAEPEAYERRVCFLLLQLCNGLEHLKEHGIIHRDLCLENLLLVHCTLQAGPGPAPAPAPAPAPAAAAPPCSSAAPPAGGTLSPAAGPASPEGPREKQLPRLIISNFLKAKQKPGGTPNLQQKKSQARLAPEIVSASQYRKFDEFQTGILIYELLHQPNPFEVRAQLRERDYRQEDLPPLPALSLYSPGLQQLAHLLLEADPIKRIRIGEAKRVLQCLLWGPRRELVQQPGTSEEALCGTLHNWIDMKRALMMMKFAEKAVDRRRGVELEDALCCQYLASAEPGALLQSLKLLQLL
Assay: co-IP; HA-tagged FL SgK223 WT or mutants expressed in MCF-10A SgK223 KO cells; immunoprecipitation with anti-HA, blot with anti-SgK269 for the endogenous protein

binding: no binding
Substance: endogenous FL SgK269-WT (from UniProt Q9H792 1-1746)
